Reference: paper PMC8087802
The exact form of at least one protein or probe is not confirmed. For some assays here: Negatives hold for the conditions tested. For some assays here: At least one verdict was read from the data and is not stated in words by the source.

Amino acid sequences for entries named in this document (tags omitted).
UniProt P08515, whole entry: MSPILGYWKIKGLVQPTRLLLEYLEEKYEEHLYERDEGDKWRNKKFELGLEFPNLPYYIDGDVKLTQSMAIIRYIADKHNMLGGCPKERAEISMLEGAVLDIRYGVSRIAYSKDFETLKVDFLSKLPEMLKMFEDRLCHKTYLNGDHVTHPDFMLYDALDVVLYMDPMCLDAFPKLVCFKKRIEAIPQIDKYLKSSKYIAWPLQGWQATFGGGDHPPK

Columns and labels:
LcBZR1-GST [1] = assay: EMSA; settings: LightShift Chemiluminescent EMSA Kit; pH and temperature not stated; recombinant protein; protein details: GST (pGEX-4T-1); label: biotin
LcBZR2-GST [2] = assay: EMSA; settings: LightShift Chemiluminescent EMSA Kit; pH and temperature not stated; recombinant protein; protein details: GST (pGEX-4T-1); label: biotin
LcBZR1-GST [3] = assay: competition with a labelled probe; settings: LightShift Chemiluminescent EMSA Kit, pH and temperature not stated, recombinant protein, protein details: GST (pGEX-4T-1)
LcBZR2-GST [4] = assay: competition with a labelled probe; settings: LightShift Chemiluminescent EMSA Kit, pH and temperature not stated, recombinant protein, protein details: GST (pGEX-4T-1)
GST = GST (UniProt P08515); assay: EMSA; settings: LightShift Chemiluminescent EMSA Kit; pH and temperature not stated; recombinant protein; label: biotin
[5] = 100x and 500x unlabeled mutant vs N5
[6] = 100x and 500x unlabeled mutant vs N7
[7] = 100x and 500x unlabeled mutant vs N1
[8] = 100x and 500x unlabeled mutant vs N3

## CAAGTACCCCTCTCTTCTTCAAGGTATCGTGCGTGTATGGACAATTTTGTT (double strand) [LcACS4 probe]
LcBZR1-GST [1]
  binding result: binds
LcBZR2-GST [2]
  binding result: binds

## TATTTACATTTTTAACATTTTCCACACGTCCACCAAGACCCACTAGTT (double strand) [LcACS1 probe]
LcBZR1-GST [1]
  binding result: binds
LcBZR2-GST [2]
  binding result: binds

## TATTTACATTTTTAACATTTTCAAAAAATCCACCAAGACCCACTAGTT (double strand) [LcACS1 mutant probe]
LcBZR1-GST [3]; [5]
  binding result: no binding
LcBZR2-GST [4]; [5]
  binding result: no binding

## CAAGTACCCCTCTCTTCTTCAAGGTATAAAAAATGTATGGACAATTTTGTT (double strand) [LcACS4 mutant probe]
LcBZR1-GST [3]; [6]
  binding result: no binding
LcBZR2-GST [4]; [6]
  binding result: no binding

## TAAAGAGAGATAAACTCAATAGATCACACGCGGGCTTAAACCACCAGACAA (double strand) [LcACO2 probe]
GST
  binding result: no binding
LcBZR1-GST [1]
  binding result: binds
LcBZR2-GST [2]
  binding result: binds

## TAAAGAGAGATAAACTCAATAGATAAAAAACGGGCTTAAACCACCAGACAA (double strand) [LcACO2 mutant probe]
LcBZR1-GST [3]; [7]
  binding result: no binding
LcBZR2-GST [4]; [7]
  binding result: no binding

## ACTTTTTGATCACGAAAATTGGCAAATGTTGCCAAGTAC (double strand) [LcACO3 probe]
LcBZR1-GST [1]
  binding result: binds
LcBZR2-GST [2]
  binding result: binds

## ACTTTTTGATCACGAAAATTGGGGGGGGTTGCCAAGTAC (double strand) [LcACO3 mutant probe]
LcBZR1-GST [3]; [8]
  binding result: no binding
LcBZR2-GST [4]; [8]
  binding result: no binding
